SMILES strings stand for the structures. The list is a part of this screen's results and no random one: it is rich in T/C values a quarter to a half above the control, in often repeated tests (any T/C) and in doses without a T/C. Further doses and runs are listed elsewhere. T/C: endpoint of the treated group in % of that of the vehicle group. Schedule codes are those of the source, read here as Q, the interval in days (D) or hours (H), X, the number of doses. Some entries were tested several times; the results are listed from low to high. Some schedule codes hold Z or #, which are not explained here. Some T/C values carry the count of animals alive at the toxicity check (mostly the fifth day); without a count, all were alive then. Some doses have a count of surviving animals in place of a T/C: the source holds a T/C of zero for them, seemingly a mark for toxic or unscored doses. Survivors were counted at the toxicity check, usually on the fifth day, unless a day is given; later deaths do not show.

The assay has as its system Swiss mice, Sarcoma 180 sc, mean tumor weight T/C. Put plainly: NCI In Vivo Anticancer Drug Screen. Data for tumor model Sarcoma 180 (subcutaneous) in Swiss mice. To be noted: T/C endpoint: mean tumor weight, higher T/C = larger tumour; for T/C: evaluated on day 8. In outline: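 Transplantable tumors were established in mice, compound was given, then survival or tumor size was recorded. The treated value was divided by the vehicle-control value.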

The mark [1] stands for this setting: dose: 500.0 mg/kg/injection, schedule: Q01DX007 (ip), vehicle: saline.
Setting [2] is: dose: 250.0 mg/kg/injection, schedule: Q01DX007 (ip), vehicle: carboxymethylcellulose (CMC).
Where [3] appears, read: dose: 300.0 mg/kg/injection, schedule: Q01DX007 (ip), vehicle: carboxymethylcellulose (CMC).
The mark [4] stands for this setting: dose: 75.0 mg/kg/injection, schedule: Q#A X014 (ip), vehicle: methylcellulose (MC).

Regarding `COC1C(OC(N)=O)C(O)C(Oc2ccc3c(O)c(NC(=O)c4ccc(O)c(CC=C(C)C)c4)c(=O)oc3c2C)OC1(C)C` (stereo not given), the T/C (dose: 100.0 mg/kg/injection, schedule: Q01DX007 (ip), vehicle: saline) is 130 % of control. Further, under “dose: 300.0 mg/kg/injection, schedule: Q01DX007 (ip), vehicle: saline”, the survivor count was 3 of 6.

Regarding `O=c1[nH]cc(C(F)(F)F)c(=O)[nH]1`, the survivor count runs as follows: (dose: 400.0 mg/kg/injection, schedule: Q01DX007 (ip), vehicle: saline) 3 of 6; under setting [1], 2 of 6.

With `CC(=O)Nc1ccc2c(c1)Cc1cc(NC=O)ccc1-2`, the survivor count under setting [2] was 1 of 6 and the survivor count (dose: 375.0 mg/kg/injection, schedule: Q01DX007 (ip), vehicle: carboxymethylcellulose (CMC)) is 2 of 6.

With `CCC(=O)OCC1OC(n2cnc3c(=S)nc(N)[nH]c32)C(OC(=O)CC)C1OC(=O)CC` (stereo not given), the T/C reads like this: (dose: 7.0 mg/kg/injection, schedule: Q01DX007 (ip), vehicle: carboxymethylcellulose (CMC)) 40, 41, 45, 80 % of control; (dose: 15.0 mg/kg/injection, schedule: Q01DX007 (ip), vehicle: carboxymethylcellulose (CMC)) 7 [4 of 6 alive], 24, 25 [4 of 6 alive], 41 % of control; (dose: 23.0 mg/kg/injection, schedule: Q01DX007 (ip), vehicle: carboxymethylcellulose (CMC)) 5, 8, 14, 32 % of control. Moreover, the survivor count runs as follows: (dose: 34.0 mg/kg/injection, schedule: Q01DX007 (ip), vehicle: carboxymethylcellulose (CMC)) 2 of 6; (dose: 51.0 mg/kg/injection, schedule: Q01DX007 (ip), vehicle: carboxymethylcellulose (CMC)) 0 of 6.

In the case of `C[C@]12CCc3c(ccc4cc(O)ccc34)[C@@H]1C[C@H](O)[C@@H]2O`, the T/C (dose: 5.0 mg/kg/injection, schedule: Q01DX007 (sc), vehicle: steroid suspending solution) was 131 % of control.

For `CCN(CC)CCNc1ccc(C)c2sc3ccccc3c(=O)c12`, the survivor count (dose: 100.0 mg/kg/injection, schedule: Q#A X014 (ip), vehicle: carboxymethylcellulose (CMC)) is listed as 1 of 6.

`CC(C)CC(C#N)C(N)=O` (stereo not given): the T/C (dose: 15.0 mg/kg/injection, schedule: Q01DX007 (ip), vehicle: methylcellulose (MC)) was 138 % of control [5 of 6 alive].

With `O=c1[nH]c(=O)c2n[nH]nc2[nH]1`, the T/C (dose: 1.0 mg/kg/injection, schedule: Q#A X014 (ip), vehicle: carboxymethylcellulose (CMC)) was 127 % of control [5 of 6 alive] and the T/C (dose: 4.0 mg/kg/injection, schedule: Q#A X014 (ip), vehicle: carboxymethylcellulose (CMC)) was 139 % of control.

As for `COC(=O)C1C(O)CCC2CN3CCc4c([nH]c5ccccc45)C3CC21` (stereo not given), the survivor count was 2 of 6 under setting [3] and 0 of 6 (dose: 500.0 mg/kg/injection, schedule: Q01DX007 (ip), vehicle: carboxymethylcellulose (CMC)).

As for `Clc1ccc2c(c1)Cc1cc(N=Cc3ccccc3Cl)ccc1-2`, the survivor count by setting is: (dose: 222.0 mg/kg/injection, schedule: Q01DX007 (ip), vehicle: saline) 2 of 6; (dose: 333.0 mg/kg/injection, schedule: Q01DX007 (ip), vehicle: saline) 0 of 6; under setting [1], 0 of 6; (dose: 750.0 mg/kg/injection, schedule: Q01DX007 (ip), vehicle: saline) 0 of 6; (dose: 1119.0 mg/kg/injection, schedule: Q01DX007 (ip), vehicle: carboxymethylcellulose (CMC)) 2 of 6; (dose: 1679.0 mg/kg/injection, schedule: Q01DX007 (ip), vehicle: carboxymethylcellulose (CMC)) 0 of 6.

For the compound `CC(=O)OCC1=CC2OC(=O)C3=COC(OC4OC(CO)C(O)C(O)C4O)C1C32` (stereo not given), for the setting “dose: 330.0 mg/kg/injection, schedule: Q01DX007 (ip), vehicle: carboxymethylcellulose (CMC)”, the T/C was 138 % of control.

Take `S=P(N1CCCCCC1)(N1CC1)N1CC1`: the survivor count (dose: 101.0 mg/kg/injection, schedule: Q01DX007 (ip), vehicle: carboxymethylcellulose (CMC)) is listed as 3 of 6.

Regarding `OCC1OC(n2cnc3c(=S)nc[nH]c32)C(O)C1O` (stereo not given), the survivor count under setting [4] is given as 3 of 6.

With `CCCCC(=O)OCC1OC(n2cnc3c(=S)nc[nH]c32)C(OC(=O)CCCC)C1OC(=O)CCCC` (stereo not given), the survivor count is recorded as 3 of 6 (dose: 175.0 mg/kg/injection, schedule: Q01DX007 (ip), vehicle: carboxymethylcellulose (CMC)); 3 of 6 (dose: 220.0 mg/kg/injection, schedule: Q01DX007 (ip), vehicle: carboxymethylcellulose (CMC)); 2 of 6 (dose: 335.0 mg/kg/injection, schedule: Q01DX007 (ip), vehicle: carboxymethylcellulose (CMC)); 0 of 6 (dose: 750.0 mg/kg/injection, schedule: Q01DX007 (ip), vehicle: carboxymethylcellulose (CMC)).

As for `O=CC1CO1` (stereo not given), the T/C (dose: 12.5 mg/kg/injection, schedule: Q01DX007 (ip), vehicle: carboxymethylcellulose (CMC)) is 141 % of control and the T/C (dose: 25.0 mg/kg/injection, schedule: Q01DX007 (ip), vehicle: carboxymethylcellulose (CMC)) was 141 % of control.

With `CCn1cnc2c(=S)nc[nH]c21`, the survivor count by setting is: (dose: 200.0 mg/kg/injection, schedule: Q01DX007 (ip), vehicle: carboxymethylcellulose (CMC)) 1 of 6; (dose: 400.0 mg/kg/injection, schedule: Q01DX007 (ip), vehicle: carboxymethylcellulose (CMC)) 0 of 6.

Take `COC(=O)C1=CO[C@@H](C)[C@@H]2Cn3ccc4c5ccccc5nc-4c3C[C@H]12`: the survivor count (dose: 200.0 mg/kg/injection, schedule: Q01DX007 (ip), vehicle: other) is 0 of 6.

As for `COc1cccc2c1C(=O)c1c(O)c3c(c(O)c1C2=O)C[C@@](O)(C(C)=O)C[C@@H]3OC1CC(N)C(O)C(C)O1` (stereo not given in full), under “dose: 1.0 mg/kg/injection, schedule: Q01DX007 (sc), vehicle: steroid suspending solution”, the T/C is 134 % of control. Further, under “dose: 10.0 mg/kg/injection, schedule: Q01DX007 (sc), vehicle: steroid suspending solution”, the survivor count is 2 of 6 and 3 of 6.

Take `CC(C)COC(=O)C1(N)CCCC1`: the survivor count (dose: 282.0 mg/kg/injection, schedule: Q01DX007 (ip), vehicle: saline) is 2 of 6.

Consider `CC(=O)N(C)C`, for which the T/C under setting [2] was 128 % of control.

Consider `NC1(C(=O)OCc2ccccc2)CCCC1`, for which the survivor count (dose: 222.0 mg/kg/injection, schedule: Q01DX007 (ip), vehicle: carboxymethylcellulose (CMC)) was 3 of 6.

Regarding `Clc1ccc2c(Cl)ncnc2c1`, under setting [4], the survivor count was 1 of 6 and 2 of 6.

In the case of `NNc1nncc2ccccc12`, the survivor count (dose: 150.0 mg/kg/injection, schedule: Q01DX007 (ip), vehicle: carboxymethylcellulose (CMC)) was 0 of 7 and the survivor count under setting [3] was 0 of 7.

As for `COc1ccc(C[C@H]2NC[C@H](O)[C@H]2OC(C)=O)cc1`, the survivor count (dose: 200.0 mg/kg/injection, schedule: Q01DX007 (ip), vehicle: saline) is given as 2 of 6.

Take `O=C1CCCCC1C(=O)C(F)(F)F` (stereo not given): the survivor count (dose: 27.75 mg/kg/injection, schedule: Q#A X014 (ip), vehicle: methylcellulose (MC)) is reported as 2 of 6; the survivor count (dose: 41.65 mg/kg/injection, schedule: Q#A X014 (ip), vehicle: methylcellulose (MC)) was 3 of 6; the survivor count (dose: 62.5 mg/kg/injection, schedule: Q#A X014 (ip), vehicle: methylcellulose (MC)) is 3 of 6; the survivor count (dose: 249.0 mg/kg/injection, schedule: Q03DX003 (ip), vehicle: saline) is recorded as 3 of 7; the survivor count (dose: 374.0 mg/kg/injection, schedule: Q02DX004 (ip), vehicle: saline) is reported as 4 of 7; the survivor count (dose: 375.0 mg/kg/injection, schedule: Q03DX003 (ip), vehicle: saline) was 3 of 7. Besides, for the setting “dose: 800.0 mg/kg/injection, schedule: Q03DX003 (ip), vehicle: carboxymethylcellulose (CMC)”, the survivor count is given as 1 of 6.

As to `O=C(N[C@H](CO)[C@H](O)c1ccc([N+](=O)[O-])cc1)C(Cl)Cl`, the T/C (dose: 125.0 mg/kg/injection, schedule: Q01DX007 (ip), vehicle: carboxymethylcellulose (CMC)) was 139 % of control. The survivor count reads like this: (dose: 750.0 mg/kg/injection, schedule: Q#A X014 (ip), vehicle: carboxymethylcellulose (CMC)) 3 of 6; (dose: 1000.0 mg/kg/injection, schedule: Q01DX007 (ip), vehicle: carboxymethylcellulose (CMC)) 2 of 10.

The values are drawn from PubChem BioAssay AID342 (DTP/NCI, 2004).
